The results in this text go back to publication PMC8631515 (Frontiers in Oncology, 2021).

Sequences of proteins named here, by UniProt entry; tags and fusion partners are left off.
UniProt Q9NZQ7: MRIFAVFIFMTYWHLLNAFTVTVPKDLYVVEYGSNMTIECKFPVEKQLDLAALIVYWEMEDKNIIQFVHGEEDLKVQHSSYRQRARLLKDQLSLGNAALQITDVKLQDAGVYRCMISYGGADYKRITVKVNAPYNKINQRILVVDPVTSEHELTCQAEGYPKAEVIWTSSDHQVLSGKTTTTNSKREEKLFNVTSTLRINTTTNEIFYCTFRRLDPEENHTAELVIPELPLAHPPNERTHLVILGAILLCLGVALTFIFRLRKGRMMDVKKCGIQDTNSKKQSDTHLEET

Results are given in words; binding and its absence hold for the method and conditions named. Some binding calls cover weakened binding; strength is not graded here.

This experiment addresses Programmed death-ligand 1 (PD-L1), Tag1-PD-L1 (UniProt Q9NZQ7). The experiment can be described thus: AlphaScreen or HTRF; Cisbio HTRF PD1/PD-L1 binding assay kit; Tag1-PD-L1 and Tag2-PD1 detected with anti-Tag1-Europium (donor) and anti-Tag2-XL665 (acceptor); peptide or conjugate varied as blocker; IC50 from a sigmoidal (Hill) fit; n = 3; both purified.

Regarding RHTNDYSQFYPK (all residues in D-form) [random polypeptide (RAN)], the binding entry is “binds weakly”.
